Test results: doi:10.1101/2022.07.20.500724
These are yes or no findings as the source states them, for the method shown. Binding seen in cells or lysates may run through a third protein.

Chains of the proteins cited; added tags and fusions are not shown.
UniProt Q13485: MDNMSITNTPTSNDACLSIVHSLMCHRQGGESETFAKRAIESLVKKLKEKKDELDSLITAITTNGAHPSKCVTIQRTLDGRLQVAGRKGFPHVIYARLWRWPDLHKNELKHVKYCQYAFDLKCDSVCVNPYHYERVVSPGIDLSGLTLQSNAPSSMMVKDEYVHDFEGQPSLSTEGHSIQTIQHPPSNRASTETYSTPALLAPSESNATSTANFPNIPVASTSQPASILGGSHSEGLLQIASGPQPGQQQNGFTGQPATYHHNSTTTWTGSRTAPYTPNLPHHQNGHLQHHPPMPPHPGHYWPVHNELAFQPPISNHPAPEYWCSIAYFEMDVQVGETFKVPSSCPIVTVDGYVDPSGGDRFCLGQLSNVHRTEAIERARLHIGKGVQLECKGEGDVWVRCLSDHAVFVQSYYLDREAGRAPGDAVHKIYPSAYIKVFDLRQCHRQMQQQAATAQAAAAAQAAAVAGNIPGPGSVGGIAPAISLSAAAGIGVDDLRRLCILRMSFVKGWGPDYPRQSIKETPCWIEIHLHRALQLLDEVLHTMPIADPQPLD
UniProt P46379: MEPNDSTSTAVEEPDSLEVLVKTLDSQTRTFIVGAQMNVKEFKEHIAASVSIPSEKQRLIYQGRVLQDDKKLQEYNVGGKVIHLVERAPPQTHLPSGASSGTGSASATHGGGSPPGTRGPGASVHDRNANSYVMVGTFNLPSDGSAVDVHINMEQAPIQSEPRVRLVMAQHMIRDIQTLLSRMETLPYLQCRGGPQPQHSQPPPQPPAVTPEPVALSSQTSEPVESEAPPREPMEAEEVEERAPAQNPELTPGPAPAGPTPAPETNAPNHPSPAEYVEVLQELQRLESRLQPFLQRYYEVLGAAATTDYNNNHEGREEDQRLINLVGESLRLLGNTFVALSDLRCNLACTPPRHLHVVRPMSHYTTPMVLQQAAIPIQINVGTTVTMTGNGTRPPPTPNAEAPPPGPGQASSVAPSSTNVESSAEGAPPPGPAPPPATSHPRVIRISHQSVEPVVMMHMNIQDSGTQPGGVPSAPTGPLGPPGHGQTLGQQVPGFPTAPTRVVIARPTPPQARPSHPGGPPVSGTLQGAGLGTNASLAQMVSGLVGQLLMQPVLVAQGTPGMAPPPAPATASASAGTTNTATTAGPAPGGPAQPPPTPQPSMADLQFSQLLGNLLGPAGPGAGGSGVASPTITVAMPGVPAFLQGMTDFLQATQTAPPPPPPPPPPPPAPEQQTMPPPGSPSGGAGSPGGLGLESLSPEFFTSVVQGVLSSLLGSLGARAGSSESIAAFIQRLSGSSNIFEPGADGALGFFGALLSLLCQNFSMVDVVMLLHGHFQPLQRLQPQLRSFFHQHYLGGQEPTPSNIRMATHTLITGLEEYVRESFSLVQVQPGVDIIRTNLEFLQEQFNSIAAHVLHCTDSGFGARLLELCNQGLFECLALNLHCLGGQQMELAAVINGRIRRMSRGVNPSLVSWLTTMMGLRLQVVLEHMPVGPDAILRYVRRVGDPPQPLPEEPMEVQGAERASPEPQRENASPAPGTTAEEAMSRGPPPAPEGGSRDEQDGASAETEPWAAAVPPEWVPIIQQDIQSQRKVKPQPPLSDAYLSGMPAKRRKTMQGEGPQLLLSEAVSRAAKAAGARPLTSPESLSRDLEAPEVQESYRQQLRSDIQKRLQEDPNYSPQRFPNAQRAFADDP

Molecular target: SMAD4 wild-type protein (human (endogenous in HEK293T)) (UniProt Q13485)
Experiment: co-IP

binding: no binding
Substance: BAG6 (from UniProt P46379 1-1132)
